Drawing on article PMC7819943, “Rice protein-binding microarrays: a tool to detect cis-acting elements near promoter regions in rice”, this text covers binding signal for 42 sequences.

Some of the results follow.

The target of this assay is T1, OsSMF1 (Oryza sativa, UniProt Q6ZLB0 1-436).
T1 sequence: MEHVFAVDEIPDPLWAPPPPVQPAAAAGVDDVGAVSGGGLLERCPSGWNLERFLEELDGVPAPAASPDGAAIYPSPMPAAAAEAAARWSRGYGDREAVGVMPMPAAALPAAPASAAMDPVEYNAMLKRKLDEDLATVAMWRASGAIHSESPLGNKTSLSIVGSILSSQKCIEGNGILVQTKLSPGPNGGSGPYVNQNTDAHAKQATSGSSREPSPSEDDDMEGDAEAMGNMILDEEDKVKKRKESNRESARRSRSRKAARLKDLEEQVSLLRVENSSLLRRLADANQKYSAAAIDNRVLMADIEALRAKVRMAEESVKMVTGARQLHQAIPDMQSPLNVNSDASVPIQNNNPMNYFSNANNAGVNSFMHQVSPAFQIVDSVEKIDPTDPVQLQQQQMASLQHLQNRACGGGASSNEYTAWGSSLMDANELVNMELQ
The experiment in a line: protein-binding microarray (RPBM); PBS, 2% BSA, 51.3 ng/ul salmon testes DNA, 50 uM zinc acetate, 200 nM TF, 25 C, 1 h; high values mean tight binding. As to conditions: protein: recombinant; tags: N-terminal polyhistidine and DsRed monomer fusion (pET32a); chain copies: 2; label: CyDye5-dUTP incorporated in the synthesized complementary strand; 3' TTTTT single-stranded linker to array surface; dsDNA, one strand shown. The gist of the method:
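The binding signal is fluorescence intensity per array feature (arbitrary units). Readings came from an Axon 4000B scanner after a washed, 2% BSA-blocked, double-stranded custom Agilent array had been incubated for 1 h at 25 °C with 200 nM protein and 50 µM zinc acetate. The protein was a Ni–NTA-purified transcription factor fused N-terminally to polyhistidine and DsRed, expressed in E. coli BL21-CodonPlus.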
As to “GTAATAATCTCTGACCAAATCGCCAAATCATCCGCCCAGACGGAGTCACCTAGTGCAG”, the binding signal is 3220 fluorescence intensity (a.u.).
Then “CTGAATCCATAATCCTAATCGATCATCATCACTTTTGCTGCGGAGTCACCTAGTGCAG”, with 4050 fluorescence intensity (a.u.).
Regarding “CCCGATGTACGAGGCGCAGGCTGCATTGACCACACGTCATCGGAGTCACCTAGTGCAG”, the binding signal was 10700 fluorescence intensity (a.u.).
As to “ATTGCGGGGCCCAGGTGCGTCCTCCCGAATCCTGATCCAACGGAGTCACCTAGTGCAG”, the binding signal is 17300 fluorescence intensity (a.u.).
On to “CGCTCATTTCCTAGGTGCGGGCAGCAGAGTCAGCTGGTGGCGGAGTCACCTAGTGCAG”, for which the binding signal was 3530 fluorescence intensity (a.u.).
In the case of “CCAGCAAGAGATCCATCAAGCCGTCGCGATGACGACGAGGCGGAGTCACCTAGTGCAG”, the binding signal was 3850 fluorescence intensity (a.u.).
The result for “GTGACATCTAAGTGCCGCGTGTTCTCCTCTTCCTCTTCCCCGGAGTCACCTAGTGCAG” reads 4550 fluorescence intensity (a.u.); that for “ACAAGTAATTACTCAGCTGCCCCTATTAAACCCCATCTTACGGAGTCACCTAGTGCAG”, 3190 fluorescence intensity (a.u.); that for “ACCTCCTGTTTGTTTATGGTTTCCCTAAATTTGCAAACGCCGGAGTCACCTAGTGCAG”, 3170 fluorescence intensity (a.u.).
For the sequence “TCCTTGTGTTTTGATGGAATGGCCTCATCTACTTGTTTGGCGGAGTCACCTAGTGCAG”, the binding signal is 3380 fluorescence intensity (a.u.).
Then “ATCCCCTGGCACGACGCTGACAGGTGGGCCCCAGTTGCGGCGGAGTCACCTAGTGCAG”, with 5010 fluorescence intensity (a.u.); and “GGGAGACAGTCCAGTAGGGAAGGCAACGGTTGCAGCAAAGCGGAGTCACCTAGTGCAG”, with 28600 fluorescence intensity (a.u.); and “AACGATGCTGAAAATCTGATGCGGTAGACTGCTGCTGTAGCGGAGTCACCTAGTGCAG”, with 24800 fluorescence intensity (a.u.).
As for “GCTCCTCCCCACAGCTGTCGTCGCGTCAACCCATTATCCTCGGAGTCACCTAGTGCAG”, the binding signal is 3570 fluorescence intensity (a.u.).
For “GCGGCGTTGCGGATGGGGACGGGGACGGGGACGGCGGCGACGGAGTCACCTAGTGCAG”, the binding signal is 3170 fluorescence intensity (a.u.).
With “CCTTTCCAATGCCGATATTACCAAATTTGGTTGTTAACACCGGAGTCACCTAGTGCAG”, the binding signal was 3230 fluorescence intensity (a.u.).
Then “ATCTCAATCGGGCTTAAATTACGGCCCGTCACTGATAGGTCGGAGTCACCTAGTGCAG”, with 5540 fluorescence intensity (a.u.); and “ACAGTTGCTGACTAGGTTGACCTTGACTCAACCACCCTACCGGAGTCACCTAGTGCAG”, with 8980 fluorescence intensity (a.u.); and “GTCTACGAATATTATGTACACGTAAATGAACTGTCAATCGCGGAGTCACCTAGTGCAG”, with 5540 fluorescence intensity (a.u.).
Then “CATTCAACCACACACATCACACATCCGTTGGCTTCTTCCACGGAGTCACCTAGTGCAG”, with 4860 fluorescence intensity (a.u.).
For “ATCTCTCATCCTGTCACAAACTATTTAGAGTGCAAACTCGCGGAGTCACCTAGTGCAG”, the binding signal was 17700 fluorescence intensity (a.u.).
For “TTTTCCACAAAACGTACGCCTACGTGTCCTCCTATCCCCTCGGAGTCACCTAGTGCAG”, the binding signal is 18200 fluorescence intensity (a.u.).
The result for “TGGCGGTTTGGAAGGCGGTTTTGGCTGACGTGGCGTCTACCGGAGTCACCTAGTGCAG” reads 43800 fluorescence intensity (a.u.); that for “AAAATAATTAAAATAGTACGAGTAGATTCACACAAGATCTCGGAGTCACCTAGTGCAG”, 39900 fluorescence intensity (a.u.).
“TCGAACAAACCCTAACAACAACAGACAAGAGAGAGGCATTCGGAGTCACCTAGTGCAG”: the binding signal was 3920 fluorescence intensity (a.u.).
Then “ATGCTTGCTGTTACCCCTGAATTGAATTCTGAAACCGAATCGGAGTCACCTAGTGCAG”, with 26700 fluorescence intensity (a.u.); and “CGGCCGCGTCAGGGAGGACGCCGCGCGGCACTACTTCCGGCGGAGTCACCTAGTGCAG”, with 3870 fluorescence intensity (a.u.).
In the case of “CCCTTCCTCCGCCTATTGCTGCCACGCCCCTCCTTCCTCCCGGAGTCACCTAGTGCAG”, the binding signal is 5240 fluorescence intensity (a.u.).
With “AGACGCTCGCGTTGCGTGGTAGACGGACTTCACGATGAATCGGAGTCACCTAGTGCAG”, the binding signal was 3680 fluorescence intensity (a.u.).
As for “GTGCTGTTTGTGATGTTTGTCTGTATGTGCTCCGTCTGTTCGGAGTCACCTAGTGCAG”, the binding signal was 3340 fluorescence intensity (a.u.).
Turning to “ATCAATCCTGCACTACAAGCAGAGTAAAATGGTGATTTCTCGGAGTCACCTAGTGCAG”, the binding signal is 4710 fluorescence intensity (a.u.).
Then “TGAACTAACGCCATCAGATGAGTCATCCGTCAACCAGTATCGGAGTCACCTAGTGCAG”, with 11900 fluorescence intensity (a.u.); and “GCTCCAACTCGCAAACTGTGGCACTGGGCTCCATGCCAGACGGAGTCACCTAGTGCAG”, with 3560 fluorescence intensity (a.u.); and “ACGCCGGAGTCCACGGCGTGGCACCGGACCACGCCCACGACGGAGTCACCTAGTGCAG”, with 3590 fluorescence intensity (a.u.).
As to “TGAGGGACCTTGCGTGTACTTTTCCCTTTAATTAGTGGATCGGAGTCACCTAGTGCAG”, the binding signal is 5190 fluorescence intensity (a.u.).
“ATTAACATGCATCCGCCTCACCGAAGGCATTCCACGCTTCCGGAGTCACCTAGTGCAG”: the binding signal was 3380 fluorescence intensity (a.u.).
The result for “GCAGCGCCCGAATGAAGGGCCACGTCAGCTCCTTTGTCCGCGGAGTCACCTAGTGCAG” reads 20900 fluorescence intensity (a.u.); that for “TTATCCAGTTCTCGTCACTGGCACGTGGGCCCCACCGTGGCGGAGTCACCTAGTGCAG”, 8190 fluorescence intensity (a.u.); that for “GCACCTGCGGCATGGCGTCACCTAACCCACTCTCTGTCAGCGGAGTCACCTAGTGCAG”, 4140 fluorescence intensity (a.u.).
“ATCACTTGGTGTTGTGCATTCCCGTTCTTTCTGTATGATGCGGAGTCACCTAGTGCAG”: the binding signal was 3670 fluorescence intensity (a.u.).
Take “TATTCACATTGGTGTGTGTGTGTGTGTTGCACATTCACATCGGAGTCACCTAGTGCAG”: the binding signal is 3970 fluorescence intensity (a.u.).
As to “TCAAGTGTCAACGTCTGATTTGGCCTCCGTAGATTGCAGACGGAGTCACCTAGTGCAG”, the binding signal was 3370 fluorescence intensity (a.u.).
